Assay results as given in paper PMC8769072, “Proteome‐scale mapping of binding sites in the unstructured regions of the human proteome” (Molecular Systems Biology, 2022).
No constants are given. Whether binding was seen depends on the method and setting. In cells and extracts the contact can be indirect. Here binding means that the protein was enriched with, or labelled near, the bait; the list need not be complete.

Legend:
[1] = molecular target: Talin‐1 (TLN1) phosphotyrosine binding (PTB)‐like domain, GST-tagged bait (human); experiment: proteomic peptide-phage display (ProP-PD); GST-tagged bait immobilised in MaxiSorp wells; whole HD2 library on M13 major coat protein P8 (multivalent) in PBS; four rounds, triplicate selections, NGS of the enriched pools; medium/high confidence peptides; only the target purified
[2] = molecular target: importin subunit alpha‐3 (KPNA4) Arm domain, GST-tagged bait (human); experiment: proteomic peptide-phage display (ProP-PD); GST-tagged bait immobilised in MaxiSorp wells; results of several HD2 libraries combined, the library of the hit is not told; only the target purified
[3] = molecular target: TNKS Ank domain, GST-tagged bait (human); experiment: as above

| Binder | binding [2] | further results |
| --- | --- | --- |
| FPTDERSWVYSPLHYS |  | binding [1]: binds |
| SLAPVKRTYEQMEFPL [ADNP 711-726 peptide from activity‐dependent neuroprotector homeobox protein, displayed on M13 phage] | binds |  |
| YEQMEFPLLKKRKLDD [ADNP 719-734 peptide from activity‐dependent neuroprotector homeobox protein, displayed on M13 phage] | binds |  |
| PQLPHLQRSPPDGQSF [SH3‐binding protein 2 (SH3BP2) 408-423 peptide, displayed on M13 phage] |  | binding [3]: binds |
